Our source for the binding values is patent US20130129730A1 (Amgen, published 2013).

Amino acid sequences for entries named in this document (tags omitted).
UniProt Q04609: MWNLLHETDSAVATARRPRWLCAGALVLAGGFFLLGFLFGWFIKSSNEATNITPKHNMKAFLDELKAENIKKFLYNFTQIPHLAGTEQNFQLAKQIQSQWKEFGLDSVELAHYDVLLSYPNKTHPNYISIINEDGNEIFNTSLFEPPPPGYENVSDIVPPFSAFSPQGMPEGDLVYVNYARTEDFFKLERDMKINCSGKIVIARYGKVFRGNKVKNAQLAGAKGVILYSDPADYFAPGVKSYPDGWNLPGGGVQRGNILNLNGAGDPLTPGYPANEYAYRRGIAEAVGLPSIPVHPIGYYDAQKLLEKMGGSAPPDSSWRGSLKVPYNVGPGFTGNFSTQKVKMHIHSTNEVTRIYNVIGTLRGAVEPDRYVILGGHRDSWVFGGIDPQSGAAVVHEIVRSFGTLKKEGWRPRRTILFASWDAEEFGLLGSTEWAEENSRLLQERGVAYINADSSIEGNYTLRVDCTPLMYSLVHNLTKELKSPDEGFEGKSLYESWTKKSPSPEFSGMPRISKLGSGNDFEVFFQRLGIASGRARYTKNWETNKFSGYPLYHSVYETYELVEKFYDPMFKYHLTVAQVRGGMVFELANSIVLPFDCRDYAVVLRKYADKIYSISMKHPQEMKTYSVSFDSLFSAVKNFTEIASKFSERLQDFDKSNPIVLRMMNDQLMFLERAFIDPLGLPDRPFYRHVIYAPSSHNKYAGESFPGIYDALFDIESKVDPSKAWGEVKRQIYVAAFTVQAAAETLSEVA

No constants are given. Whether binding was seen depends on the method and setting. Some results given as binding are weak or reduced against the parent protein; the word gives no strength.

Experiment [1] deals with human PSMA (human) (UniProt Q04609). Briefly: flow cytometry, scFv periplasmic preparation on transfected CHO cells. For orientation: In flow cytometry, cells or beads pass a laser one at a time.
Experiment [2] shares this target. Briefly: flow cytometry, scFv periplasmic preparation on PSMA transfected CHO cells.

B1: scFv PM52-C3 (scFv)
scFv: QVQLVQSGAEVKKPGASVKLSCKASGYTFTYFDINWVRQTPEQGLEWMGGISPGDGNTNYNENFKGRVTMTRDTSSSTAYMELSRLRSDDTAVYYCARDGNFPYYAMDSWGQGTTVTVSSGGGGSGGGGSGGGGSDVVMTQSPLSLPVTLGEPASISCRSSQSLVYSNGNTYLHWYQQKPGQSPRLLIYKVSNRFSGVPDRFSGSGSGTDFTLKISRVEAEDVGVYFCSQSTHVPYTFGQGTKLEIKDYKDDDDK
notes: Tested as periplasmic preparation from E. coli; also called PM52C3-VH-VL; not shown: His6-tag
With B1, the binding entry with human PSMA (human) [1] and with human PSMA (human) [2] was “binds” each time.

B2: scFv PM52-H3 (scFv)
scFv: QVQLVQSGAEVKKPGASVKLSCKASGYTFTYFDINWVRQTPEQGLEWMGGISPGDGNTNYNENFKGRVTMTRDTSKSTAYMELSRLRSDDTAVYYCARDGNFPYYAMDSWGQGTTVTVSSGGGGSGGGGSGGGGSDVVMTQSPLSLPVTLGEPASISCRSSQSLVYSNGNTYLHWYQQKPGQSPRLLIYKVSNRFSGVPDRFSGSGSGTDFTLKISRVEAEDVGVYFCSQSTHVPYTFGQGTKLEIKDYKDDDDK
notes: Tested as periplasmic preparation from E. coli; also called PM52H3-VH-VL; not shown: His6-tag
In the case of B2, the binding result in the experiment with human PSMA (human) [1] and in the experiment with human PSMA (human) [2] was “binds” in each case.

B3: scFv PM91-B6 (scFv)
scFv: QVQLVQSGAEVKKPGASVKLSCKASGYTFTYFDINWVRQTPEQGLEWMGGISPGDGNTNYNENFKGRVTMTRDTSSSTAYMELSRLRSDDTAVYYCARDGNFPYYALTNWGQGTTVTVSSGGGGSGGGGSGGGGSDVVMTQSPLSLPVTLGEPASISCRSSQSLVYSNGNTYLHWYQQKPGQSPRLLIYKVSNRFSGVPDRFSGSGSGTDFTLKISRVEAEDVGVYFCSQSTHVPYTFGQGTKLEIKDYKDDDDK
notes: Tested as periplasmic preparation from E. coli; also called PM91B6-VH-VL; not shown: His6-tag
Turning to B3, the binding result with human PSMA (human) [1] and with human PSMA (human) [2] was “binds” each time.

B4: scFv PM75-A10 (scFv)
scFv: QVQLVQSGAEVKKPGASVKLSCKASGYTFTYFDINWVRQTPEQGLEWMGGISPGDGNTNYNENFKGRVTMTRDTSSSTAYMELSRLRSDDTAVYYCARDGNFPYYAMVNWGQGTTVTVSSGGGGSGGGGSGGGGSDVVMTQSPLSLPVTLGEPASISCRSSQSLVYSNGNTYLHWYQQKPGQSPRLLIYKVSNRFSGVPDRFSGSGSGTDFTLKISRVEAEDVGVYFCSQSTHVPYTFGQGTKLEIKDYKDDDDK
notes: Tested as periplasmic preparation from E. coli; also called PM75A10-VH-VL; not shown: His6-tag
For the molecule B4, the binding entry in the experiment with human PSMA (human) [1] and with human PSMA (human) [2] was “binds” in each case.
